These are yes or no findings as the source states them, for the method shown. Binding seen in cells or lysates may run through a third protein. Some binding calls cover weakened binding; strength is not graded here.
Experiments:
[1] = biological target: human FLAG-tagged MTO1 (human) (UniProt Q9Y2Z2); test: co-IP; HEK 293T cells transiently expressing MTO1-FLAG; lysis buffer 1% NP40, 50 mM Tris-HCl pH 7.6, 150 mM NaCl; supernatants incubated overnight at 4°C with beads cross-linked to anti-FLAG or anti-MTPAP antibody; Western blot with anti-FLAG, anti-MTPAP and TOM20 antibodies
[2] = biological target: T1, MTPAP, mitochondrial poly(A) polymerase (human (endogenous in HEK 293T)) (UniProt Q9NVV4); test: as above
T1 sequence: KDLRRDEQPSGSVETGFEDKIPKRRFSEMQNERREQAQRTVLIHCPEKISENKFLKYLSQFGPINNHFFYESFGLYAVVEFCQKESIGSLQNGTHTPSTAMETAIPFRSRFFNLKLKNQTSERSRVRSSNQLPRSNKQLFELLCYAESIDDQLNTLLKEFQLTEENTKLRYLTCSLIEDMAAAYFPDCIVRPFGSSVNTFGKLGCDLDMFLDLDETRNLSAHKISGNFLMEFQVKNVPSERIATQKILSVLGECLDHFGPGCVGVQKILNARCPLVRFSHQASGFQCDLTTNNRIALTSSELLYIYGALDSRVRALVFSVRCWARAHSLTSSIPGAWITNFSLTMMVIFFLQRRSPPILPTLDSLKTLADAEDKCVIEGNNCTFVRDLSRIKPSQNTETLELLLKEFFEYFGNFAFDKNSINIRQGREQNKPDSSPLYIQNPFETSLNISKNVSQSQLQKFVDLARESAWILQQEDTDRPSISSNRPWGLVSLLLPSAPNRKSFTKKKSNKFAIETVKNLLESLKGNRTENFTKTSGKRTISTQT

Amino acid sequences for entries named in this document (tags omitted). Residues count along the entry.
UniProt Q9Y2Z2, residues 26-717: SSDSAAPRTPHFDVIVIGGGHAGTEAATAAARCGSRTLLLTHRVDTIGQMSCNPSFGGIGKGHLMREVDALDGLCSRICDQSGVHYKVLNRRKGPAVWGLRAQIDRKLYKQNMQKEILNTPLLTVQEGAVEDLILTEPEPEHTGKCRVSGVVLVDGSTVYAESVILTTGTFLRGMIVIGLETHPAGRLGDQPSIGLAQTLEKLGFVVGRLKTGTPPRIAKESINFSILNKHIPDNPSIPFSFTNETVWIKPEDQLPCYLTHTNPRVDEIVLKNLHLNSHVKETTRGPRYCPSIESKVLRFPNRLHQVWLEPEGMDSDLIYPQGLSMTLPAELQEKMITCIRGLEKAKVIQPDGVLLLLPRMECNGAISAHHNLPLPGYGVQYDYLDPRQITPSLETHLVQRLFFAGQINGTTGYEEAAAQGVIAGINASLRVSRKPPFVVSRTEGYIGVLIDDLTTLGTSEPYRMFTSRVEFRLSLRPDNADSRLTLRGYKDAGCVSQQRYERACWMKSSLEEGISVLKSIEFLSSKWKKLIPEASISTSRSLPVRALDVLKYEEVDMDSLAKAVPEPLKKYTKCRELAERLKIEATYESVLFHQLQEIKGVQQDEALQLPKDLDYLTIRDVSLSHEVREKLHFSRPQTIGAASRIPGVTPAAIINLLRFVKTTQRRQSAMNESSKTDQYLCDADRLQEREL
UniProt Q15388: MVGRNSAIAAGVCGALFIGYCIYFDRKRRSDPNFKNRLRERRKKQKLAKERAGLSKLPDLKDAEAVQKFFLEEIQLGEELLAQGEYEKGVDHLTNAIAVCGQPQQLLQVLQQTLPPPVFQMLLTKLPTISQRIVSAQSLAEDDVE

## TOM20 (from UniProt Q15388 1-145)
[1]
  binding: no binding

## human FLAG-tagged MTO1 (from UniProt Q9Y2Z2 26-717)
[2]
  binding: binds

B1: MTPAP, mitochondrial poly(A) polymerase (protein, UniProt Q9NVV4 38-582)
chain: KDLRRDEQPSGSVETGFEDKIPKRRFSEMQNERREQAQRTVLIHCPEKISENKFLKYLSQFGPINNHFFYESFGLYAVVEFCQKESIGSLQNGTHTPSTAMETAIPFRSRFFNLKLKNQTSERSRVRSSNQLPRSNKQLFELLCYAESIDDQLNTLLKEFQLTEENTKLRYLTCSLIEDMAAAYFPDCIVRPFGSSVNTFGKLGCDLDMFLDLDETRNLSAHKISGNFLMEFQVKNVPSERIATQKILSVLGECLDHFGPGCVGVQKILNARCPLVRFSHQASGFQCDLTTNNRIALTSSELLYIYGALDSRVRALVFSVRCWARAHSLTSSIPGAWITNFSLTMMVIFFLQRRSPPILPTLDSLKTLADAEDKCVIEGNNCTFVRDLSRIKPSQNTETLELLLKEFFEYFGNFAFDKNSINIRQGREQNKPDSSPLYIQNPFETSLNISKNVSQSQLQKFVDLARESAWILQQEDTDRPSISSNRPWGLVSLLLPSAPNRKSFTKKKSNKFAIETVKNLLESLKGNRTENFTKTSGKRTISTQT
[1]
  binding: binds
